According to PubChem BioAssay AID651640 (Broad Institute, 2012):
Among all 350,000 compounds or so, about 6,000 (1.7%) were called active. The inconclusive results got no clear call from the source; some entries with a clear call stand among them for comparison. No stated cut-off is given here; in the data, active means CPE inhibition above about 20% (passing the limit was not always enough); inconclusive means no clear call, values can overlap the other calls; tested in BHK-21 cells.

Assay: protection of cells from dengue 2 killing – plate reader, single concentration, primary screen (AID 651640);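 further: 0% = median of neutral control wells and 100% = median of positive control wells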
Details: DENV2-infected cells, cytopathic effect rescue, at 9.99 µM, hits give high values

Compound | CPE inhibition
O=S(=O)(Nc1nc2ccccc2nc1Nc1ccc2c(c1)OCCO2)c1cccs1 | inconclusive: 20.8%
C[C@@H]1CN([C@H](C)CO)C(=O)c2cc(C#CC3(O)CCCC3)cnc2O[C@@H]1CN(C)C | inconclusive: 30.6%
COc1ccc(NC(=O)Nc2cccc3c2O[C@@H](CN(C)Cc2ccc4c(c2)OCO4)[C@H](C)CN([C@@H](C)CO)C3=O)cc1 | inconclusive: 47.1%
C[C@H](CO)N1C[C@H](C)[C@@H](CN(C)C(=O)Nc2ccc3c(c2)OCO3)Oc2ccc(NS(=O)(=O)c3cccs3)cc2CC1=O | inconclusive: 27.4%
CC(C)c1ccc(S(=O)(=O)N2CCC(C(=O)N3CCC3)CC2)cc1 | inconclusive: 32.7%
Cc1ccc(S(=O)(=O)N2CCOCC2)cc1NC(=O)COc1ccccc1Cc1ccccc1 | inconclusive: 26.5%
C[C@@H]1CN([C@H](C)CO)C(=O)c2cc(C3=CCCC3)cnc2O[C@@H]1CN(C)C(=O)c1ccc2c(c1)OCO2 | inactive: -7.32%
CC(=O)NC[C@H]1[C@@H](c2ccc(-c3ccccc3)cc2)[C@@H](CO)N1C(=O)C1CCC1 | active: 31.4%
Cc1ccc(-c2[nH][nH]c(=O)c(=O)c2N=Nc2ccccc2)cc1 | inactive: -2.08%
Cc1ccc(-c2cnc3c(c2)C(=O)N([C@H](C)CO)C[C@@H](C)[C@H](CN(C)C(=O)c2ccc(F)cc2)O3)cc1 | inconclusive: 24.2%
C[C@H](NC(=O)[C@@H]1CCCN1C(=O)OC(C)(C)C)c1ccccc1 | active: 76%
CN(C(=O)C1CCCCC1)C1CCS(=O)(=O)C1 (centres undefined) | inconclusive: 48.6%
S=C1NC(c2ccccc2)=CC(c2ccccc2)N1 (centres undefined) | inactive: 0.154%
C[C@H]1CN([C@@H](C)CO)C(=O)Cc2cc(NC(=O)Nc3cccc4ccccc34)ccc2O[C@@H]1CN(C)C | active: 25.6%
CC=Cc1ccc2n(c1=O)C[C@@H]1[C@@H](CO)[C@H](C(=O)Nc3ccc(-c4ccccc4)cc3)N(C)[C@H]21 (mixture of isomers) | inactive: -9.77%
CC[n+]1c(/C=C/c2ccc(N(C)C)cc2)ccc2ccccc21 | inactive: 2.97%
C[C@@H]1CN([C@H](C)CO)C(=O)c2cccc(NC(=O)Nc3ccc4c(c3)OCO4)c2O[C@@H]1CN(C)C(=O)Nc1ccc(F)cc1 | inconclusive: 20.4%
COc1ccc(S(=O)(=O)Nc2cccc3c2O[C@@H](CN(C)C(=O)Nc2ccccc2)[C@H](C)CN([C@@H](C)CO)C3=O)cc1 | inconclusive: 47.9%
CCOc1ccc2[nH]c(C)cc(=O)c2c1 | inconclusive: 24.7%

Quoted from the listing (two entries):
Compound | CPE inhibition
COc1ccc(NC(=O)Nc2cccc3c2O[C@@H](CN(C)Cc2ccc4c(c2)OCO4)[C@H](C)CN([C@@H](C)CO)C3=O)cc1 | inconclusive: 47.1%
C[C@H](CO)N1C[C@H](C)[C@@H](CN(C)C(=O)Nc2ccc3c(c2)OCO3)Oc2ccc(NS(=O)(=O)c3cccs3)cc2CC1=O | inconclusive: 27.4%
